{"source": "paper PMC8002113", "binders": {"B1": {"name": "Recombinant human DNase1L2, short isoform (DNase1L2-S) (enzyme, UniProt Q92874-2 21-278)", "chain": "ALRIGAFNIQSFGDSKVSDPACGSIIAKILAGYDLALVQEVRDPDLSAVSALMEQINSVSEHEYSFVSSQPLGRDQYKEMYLFVYRKDAVSVVDTYLYPDPEDVFSREPFVVKFSAPGTAQNLVLIPLHAAPHQAVAEIDALYDVYLDVIDKWGTDDMLFLGDFNADCSYVRAQDWAAIRLRSSEVFKWLIPDSADTTVGNSDCAYDRIVACGARLRRSLKPQSATVHDFQEEFGLDQTQALAISDHFPVEVTLKFHR"}}, "target": "Recombinant human DNase1L2, short isoform (DNase1L2-S) (human) (UniProt Q92874)", "experiment": "SEC; Superdex 200 10/300 in PBS with 1 mM CaCl2; single peak; molecular weight judged by SDS-PAGE against the value calculated from the sequence; both purified", "note": "These are yes or no findings as the source states them, for the method shown."}
{"binder": "B1", "values": [{"measurement": "binding", "result": "no binding"}]}
